{"source": "PubChem BioAssay AID720505, Drosophila RNAi Screening Center, 2013", "purpose": "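Knock-downs that reduce calcium influx once internal stores are emptied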 (primary screen)", "system": "Drosophila S2R+ cells", "knock-down reagent": "long dsRNA against Drosophila genes", "conditions": "thapsigargin (2 µM) in calcium-free buffer to empty internal stores, then 2 mM calcium added back", "detection": "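Stores emptied by 2 µM thapsigargin without calcium, then 2 mM calcium re-added; fluo-4 fluorescence followed by FLIPR in 384-well plates, per-well averaged endpoint, raw; two screen passes, some wells retested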", "direction": "calcium signal: higher = more calcium entry after store depletion", "hit rule": "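About 1500 genes called as lowering calcium entry, by varying amounts, judged against per-plate control wells with STIM1 as positive and Rho1 as negative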", "meaning of the calls": "active = called as lowering calcium entry; inactive = not called", "note": "The deposit covers about 20,000 reagents; shown is a random part of those with a known target gene and a result. Of all reagents, about 2,100 (10%) are marked active. 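Raw plate signals without normalisation; calls rest on control-based scores that were not deposited; replicate 2 separates called from uncalled poorly.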 A plus sign joins genes that one reagent is predicted to hit. The record does not give: the amount of reagent, the time to read-out."}
{"gene knocked down":"Bem46","DRSC id":"DRSC00275","calcium signal, replicate 1":97.4,"calcium signal, replicate 2":91.5,"Outcome":"inactive"}
{"gene knocked down":"NSD","DRSC id":"DRSC15691","calcium signal, replicate 1":121,"calcium signal, replicate 2":124,"Outcome":"inactive"}
{"gene knocked down":"Pop4","DRSC id":"DRSC10955","calcium signal, replicate 1":86.9,"calcium signal, replicate 2":79.1,"Outcome":"inactive"}
{"gene knocked down":"CG43084","DRSC id":"DRSC09998","calcium signal, replicate 1":73.1,"calcium signal, replicate 2":151,"Outcome":"inactive"}
{"gene knocked down":"MFS3","DRSC id":"DRSC00664","calcium signal, replicate 1":192,"calcium signal, replicate 2":134,"Outcome":"inactive"}
{"gene knocked down":"CG5023","DRSC id":"DRSC15697","calcium signal, replicate 1":132,"calcium signal, replicate 2":142,"Outcome":"inactive"}
{"gene knocked down":"glob3","DRSC id":"DRSC12261","calcium signal, replicate 1":121,"calcium signal, replicate 2":210,"Outcome":"inactive"}
{"gene knocked down":"fs(2)ltoPP43","DRSC id":"DRSC02067","calcium signal, replicate 1":123,"calcium signal, replicate 2":98,"Outcome":"inactive"}
{"gene knocked down":"Tsp42Ej","DRSC id":"DRSC06113","calcium signal, replicate 1":157,"calcium signal, replicate 2":105,"Outcome":"inactive"}
{"gene knocked down":"CG11370","DRSC id":"DRSC11653","calcium signal, replicate 1":87.8,"calcium signal, replicate 2":119,"Outcome":"inactive"}
{"gene knocked down":"mop","DRSC id":"DRSC11065","calcium signal, replicate 1":90.6,"calcium signal, replicate 2":106,"Outcome":"inactive"}
{"gene knocked down":"Bub3","DRSC id":"DRSC14168","calcium signal, replicate 1":58.3,"calcium signal, replicate 2":140,"Outcome":"active"}
{"gene knocked down":"CG11192","DRSC id":"DRSC06057","calcium signal, replicate 1":142,"calcium signal, replicate 2":76.5,"Outcome":"inactive"}
{"gene knocked down":"yellow-g","DRSC id":"DRSC08575","calcium signal, replicate 1":61,"calcium signal, replicate 2":95.2,"Outcome":"inactive"}

The list goes on, starting with the last 5 of the part before.
{"gene knocked down":"CG11370","DRSC id":"DRSC11653","calcium signal, replicate 1":87.8,"calcium signal, replicate 2":119,"Outcome":"inactive"}
{"gene knocked down":"mop","DRSC id":"DRSC11065","calcium signal, replicate 1":90.6,"calcium signal, replicate 2":106,"Outcome":"inactive"}
{"gene knocked down":"Bub3","DRSC id":"DRSC14168","calcium signal, replicate 1":58.3,"calcium signal, replicate 2":140,"Outcome":"active"}
{"gene knocked down":"CG11192","DRSC id":"DRSC06057","calcium signal, replicate 1":142,"calcium signal, replicate 2":76.5,"Outcome":"inactive"}
{"gene knocked down":"yellow-g","DRSC id":"DRSC08575","calcium signal, replicate 1":61,"calcium signal, replicate 2":95.2,"Outcome":"inactive"}
{"gene knocked down":"CG17493","DRSC id":"DRSC03798","calcium signal, replicate 1":141,"calcium signal, replicate 2":94.4,"Outcome":"inactive"}
{"gene knocked down":"ATP6 (retired record)","DRSC id":"DRSC21278","calcium signal, replicate 1":64.7,"calcium signal, replicate 2":171,"Outcome":"active"}
{"gene knocked down":"E(spl)m7-HLH","DRSC id":"DRSC16696","calcium signal, replicate 1":227,"calcium signal, replicate 2":110,"Outcome":"inactive"}
{"gene knocked down":"mRpL11","DRSC id":"DRSC15482","calcium signal, replicate 1":104,"calcium signal, replicate 2":182,"Outcome":"inactive"}
{"gene knocked down":"CG31126","DRSC id":"DRSC14623","calcium signal, replicate 1":239,"calcium signal, replicate 2":111,"Outcome":"inactive"}
{"gene knocked down":"alphaTry","DRSC id":"DRSC07577","calcium signal, replicate 1":104,"calcium signal, replicate 2":231,"Outcome":"inactive"}
{"gene knocked down":"Lmx1a","DRSC id":"DRSC09726","calcium signal, replicate 1":114,"calcium signal, replicate 2":95.1,"Outcome":"inactive"}
{"gene knocked down":"Lmx1a","DRSC id":"DRSC10275","calcium signal, replicate 1":68.9,"calcium signal, replicate 2":103,"Outcome":"active"}
{"gene knocked down":"Or63a","DRSC id":"DRSC08681","calcium signal, replicate 1":65.4,"calcium signal, replicate 2":115,"Outcome":"inactive"}
{"gene knocked down":"Arp53D","DRSC id":"DRSC05923","calcium signal, replicate 1":147,"calcium signal, replicate 2":165,"Outcome":"inactive"}
{"gene knocked down":"Polr2E","DRSC id":"DRSC06100","calcium signal, replicate 1":75.3,"calcium signal, replicate 2":84.4,"Outcome":"inactive"}
{"gene knocked down":"CG8517","DRSC id":"DRSC07205","calcium signal, replicate 1":178,"calcium signal, replicate 2":203,"Outcome":"inactive"}
{"gene knocked down":"Cpr66D","DRSC id":"DRSC10640","calcium signal, replicate 1":110,"calcium signal, replicate 2":89.8,"Outcome":"inactive"}
{"gene knocked down":"Cpr66D","DRSC id":"DRSC10646","calcium signal, replicate 1":86.2,"calcium signal, replicate 2":76.7,"Outcome":"inactive"}
{"gene knocked down":"Cpr66D","DRSC id":"DRSC23178","calcium signal, replicate 1":104,"calcium signal, replicate 2":122,"Outcome":"inactive"}
{"gene knocked down":"Cht9","DRSC id":"DRSC04079","calcium signal, replicate 1":131,"calcium signal, replicate 2":114,"Outcome":"inactive"}
{"gene knocked down":"CG5455","DRSC id":"DRSC15805","calcium signal, replicate 1":100,"calcium signal, replicate 2":156,"Outcome":"inactive"}
{"gene knocked down":"Cad96Cb","DRSC id":"DRSC14243","calcium signal, replicate 1":175,"calcium signal, replicate 2":173,"Outcome":"inactive"}
{"gene knocked down":"Cad96Cb","DRSC id":"DRSC14665","calcium signal, replicate 1":191,"calcium signal, replicate 2":128,"Outcome":"inactive"}
{"gene knocked down":"MED23 + CG3700","DRSC id":"DRSC04406","calcium signal, replicate 1":120,"calcium signal, replicate 2":253,"Outcome":"inactive"}
{"gene knocked down":"MED23 + CG3700","DRSC id":"DRSC04407","calcium signal, replicate 1":143,"calcium signal, replicate 2":89.3,"Outcome":"inactive"}
